Some of these results come from one statement about several compounds together.
Molecular target: T1, PDE-4A (Homo sapiens, UniProt P27815)
T1 construct: PDE-4A catalytic domain comprising amino acids 342-704; made in house; host or cells: Escherichia coli
Assay: PDE-4A inhibitory assay (SPA)
Type: biochemical
Description: Human recombinant PDE-4A catalytic domain comprising amino acids 342-704 was cloned into Escherichia coli and expressed, as described by W. Richter et al., Protein Expression and Purification (2000) 19: 375-383. The other posphodiesterases were either obtained from cell lines of human origin (TPH1 monocytes line for PDE-1, MCF7 for PDE-5) or expressed recombinantly in sf9 insect cells (for PDE-3A, PDE-3B, PDE-7A and PDE-4D) in accordance with an adapted method by Luckow, V. A. et al., in: Recombinant DNA Technology & Applications., (1991) eds. Prokop, Bajpai, R. K. & Ho, C. S., pp 97-152.
The phosphodiesterase activity was determined by the SPA assay as described by the manufacturer Amersham Biosciences and by Horton J. K and Baxendale P. M., Methods Mol. Biol. (1995) 41: 91-105.
The reaction mixtures contained 100 mM Tris-HCl (pH 7.5), 5 mM MgCl2, 3.8 mM 2-mercaptoethanol, and 1 μM cAMP or cGMP as a substrate, the inhibitors at different concentrations and also further components required for the detection of the individual isoenzymes (see below). The reaction was started by adding the enzyme. The operating volume is 100 μl in the wells of a white 96-Well microtiter plate. […] Then, the beads are allowed to sediment for 30 min and the plates are analyzed on the luminescence microtiter plate reader Fluostar Optima (BMG Labtechologies). […]

The chains behind the UniProt entries cited, without tags or fusion partners. Residues count along the entry.
UniProt P27815, 342-704: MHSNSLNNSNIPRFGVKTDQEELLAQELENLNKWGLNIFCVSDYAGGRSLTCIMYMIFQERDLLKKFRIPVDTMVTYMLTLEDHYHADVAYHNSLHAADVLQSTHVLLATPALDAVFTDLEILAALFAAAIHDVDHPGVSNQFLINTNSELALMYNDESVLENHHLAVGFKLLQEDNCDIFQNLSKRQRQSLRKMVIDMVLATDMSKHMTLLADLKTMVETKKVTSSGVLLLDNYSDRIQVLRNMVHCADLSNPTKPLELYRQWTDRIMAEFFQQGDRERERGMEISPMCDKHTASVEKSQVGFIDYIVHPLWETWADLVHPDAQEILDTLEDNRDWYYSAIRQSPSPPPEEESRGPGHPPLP

N-(4-(4-Ethoxy-9-trifluoromethyl-2-piperazin-1-yl-pyrido[3′,2′:4,5]thieno[3,2-d]pyrimidin-7-yl)-phenyl)-nicotinamide-N-oxide
IC50: < 2 nM

From US8058285B2, “Substituted pyrido [3′, 2′: 4, 5] thieno [3, 2-D] pyrimidines and pyrido [3′, 2′: 4, 5] furo [3, 2-D] pyrimidines used as inhibitors of the PDE-4 and/or the release of TNF-ALPHA” (The Medicines Company (Leipzig) GmbH, priority 2004, dated 2011)
